The values below come from the supplement of paper PMC10849652.

Amino acid sequences for entries named in this document (tags omitted). A change or cut given only in a name is not applied to a line headed by its entry.
UniProt Q2M296: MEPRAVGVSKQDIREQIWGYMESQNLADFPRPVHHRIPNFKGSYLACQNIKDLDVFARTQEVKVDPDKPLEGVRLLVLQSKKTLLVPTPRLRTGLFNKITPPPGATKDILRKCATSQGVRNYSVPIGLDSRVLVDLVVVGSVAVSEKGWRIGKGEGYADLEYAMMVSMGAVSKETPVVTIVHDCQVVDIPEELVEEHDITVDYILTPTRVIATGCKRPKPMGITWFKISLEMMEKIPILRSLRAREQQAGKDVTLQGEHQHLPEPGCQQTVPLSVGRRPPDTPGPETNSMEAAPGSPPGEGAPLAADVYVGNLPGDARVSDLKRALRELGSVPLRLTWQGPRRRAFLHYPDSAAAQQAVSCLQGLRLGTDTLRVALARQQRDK
UniProt Q9UGC7: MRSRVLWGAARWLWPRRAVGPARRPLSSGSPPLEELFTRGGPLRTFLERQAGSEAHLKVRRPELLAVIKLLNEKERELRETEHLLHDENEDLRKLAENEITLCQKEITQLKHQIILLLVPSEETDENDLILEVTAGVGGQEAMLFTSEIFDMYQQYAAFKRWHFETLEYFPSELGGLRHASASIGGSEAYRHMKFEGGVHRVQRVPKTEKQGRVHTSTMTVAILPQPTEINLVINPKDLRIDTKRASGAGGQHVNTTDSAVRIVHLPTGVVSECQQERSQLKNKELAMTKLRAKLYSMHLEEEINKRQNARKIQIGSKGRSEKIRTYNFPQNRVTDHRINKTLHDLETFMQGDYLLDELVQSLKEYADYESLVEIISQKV
UniProt Q9Y3D2: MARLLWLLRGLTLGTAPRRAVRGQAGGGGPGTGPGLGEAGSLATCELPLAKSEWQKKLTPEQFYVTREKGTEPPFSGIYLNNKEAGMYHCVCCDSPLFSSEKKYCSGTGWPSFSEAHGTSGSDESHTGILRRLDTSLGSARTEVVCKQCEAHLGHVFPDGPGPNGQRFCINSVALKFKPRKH
UniProt O94776: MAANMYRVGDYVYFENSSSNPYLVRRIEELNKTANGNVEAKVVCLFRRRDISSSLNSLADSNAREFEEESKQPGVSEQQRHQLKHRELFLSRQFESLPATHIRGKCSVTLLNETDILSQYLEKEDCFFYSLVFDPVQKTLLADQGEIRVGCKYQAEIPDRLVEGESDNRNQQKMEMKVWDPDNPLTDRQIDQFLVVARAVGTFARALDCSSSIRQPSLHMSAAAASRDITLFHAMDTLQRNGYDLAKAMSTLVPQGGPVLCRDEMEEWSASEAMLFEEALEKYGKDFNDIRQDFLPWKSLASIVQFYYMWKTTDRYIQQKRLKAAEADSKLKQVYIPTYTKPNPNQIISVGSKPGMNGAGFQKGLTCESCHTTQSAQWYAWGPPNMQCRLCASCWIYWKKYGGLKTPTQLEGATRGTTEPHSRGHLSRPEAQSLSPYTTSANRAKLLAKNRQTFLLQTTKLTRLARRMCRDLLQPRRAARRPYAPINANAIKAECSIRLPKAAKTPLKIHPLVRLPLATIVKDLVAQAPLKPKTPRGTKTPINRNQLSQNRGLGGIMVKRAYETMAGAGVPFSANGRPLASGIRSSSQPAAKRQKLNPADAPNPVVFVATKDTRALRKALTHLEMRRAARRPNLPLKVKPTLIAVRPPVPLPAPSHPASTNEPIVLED
UniProt P13640: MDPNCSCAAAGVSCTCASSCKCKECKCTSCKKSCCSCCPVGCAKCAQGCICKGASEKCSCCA
UniProt P52701: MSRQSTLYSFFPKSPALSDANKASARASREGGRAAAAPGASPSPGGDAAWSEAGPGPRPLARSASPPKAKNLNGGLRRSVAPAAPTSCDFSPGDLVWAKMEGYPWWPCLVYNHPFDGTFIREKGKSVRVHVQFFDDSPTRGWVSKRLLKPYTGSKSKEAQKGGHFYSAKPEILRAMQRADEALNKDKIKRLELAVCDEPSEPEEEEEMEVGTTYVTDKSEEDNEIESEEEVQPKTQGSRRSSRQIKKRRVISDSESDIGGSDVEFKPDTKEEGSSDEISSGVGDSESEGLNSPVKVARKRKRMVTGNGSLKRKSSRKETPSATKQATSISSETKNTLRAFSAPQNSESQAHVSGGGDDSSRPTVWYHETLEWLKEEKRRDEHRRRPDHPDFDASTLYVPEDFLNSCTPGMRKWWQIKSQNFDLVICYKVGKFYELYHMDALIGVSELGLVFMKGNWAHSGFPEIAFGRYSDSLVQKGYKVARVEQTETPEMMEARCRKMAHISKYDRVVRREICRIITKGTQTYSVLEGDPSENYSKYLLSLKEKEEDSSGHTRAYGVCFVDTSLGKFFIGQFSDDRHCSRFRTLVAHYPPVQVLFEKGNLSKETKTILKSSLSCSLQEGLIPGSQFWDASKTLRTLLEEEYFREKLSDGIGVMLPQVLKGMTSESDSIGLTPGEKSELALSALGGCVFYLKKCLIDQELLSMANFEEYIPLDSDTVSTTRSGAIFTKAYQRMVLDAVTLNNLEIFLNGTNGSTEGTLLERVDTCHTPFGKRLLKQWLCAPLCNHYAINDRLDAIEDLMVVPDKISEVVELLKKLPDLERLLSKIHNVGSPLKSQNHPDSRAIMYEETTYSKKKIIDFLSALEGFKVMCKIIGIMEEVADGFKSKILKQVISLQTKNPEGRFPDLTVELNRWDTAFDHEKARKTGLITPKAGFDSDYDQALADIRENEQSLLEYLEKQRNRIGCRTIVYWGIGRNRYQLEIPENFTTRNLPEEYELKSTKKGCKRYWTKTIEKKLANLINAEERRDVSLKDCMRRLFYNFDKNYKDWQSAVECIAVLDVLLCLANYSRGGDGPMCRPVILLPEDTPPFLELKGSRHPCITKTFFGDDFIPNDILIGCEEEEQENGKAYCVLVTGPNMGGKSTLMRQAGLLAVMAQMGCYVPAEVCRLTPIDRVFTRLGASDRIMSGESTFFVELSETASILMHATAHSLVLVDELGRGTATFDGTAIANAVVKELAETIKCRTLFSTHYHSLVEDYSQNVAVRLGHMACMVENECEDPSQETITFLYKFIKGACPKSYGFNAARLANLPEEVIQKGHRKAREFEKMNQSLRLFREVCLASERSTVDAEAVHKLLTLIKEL
UniProt Q9Y4B5: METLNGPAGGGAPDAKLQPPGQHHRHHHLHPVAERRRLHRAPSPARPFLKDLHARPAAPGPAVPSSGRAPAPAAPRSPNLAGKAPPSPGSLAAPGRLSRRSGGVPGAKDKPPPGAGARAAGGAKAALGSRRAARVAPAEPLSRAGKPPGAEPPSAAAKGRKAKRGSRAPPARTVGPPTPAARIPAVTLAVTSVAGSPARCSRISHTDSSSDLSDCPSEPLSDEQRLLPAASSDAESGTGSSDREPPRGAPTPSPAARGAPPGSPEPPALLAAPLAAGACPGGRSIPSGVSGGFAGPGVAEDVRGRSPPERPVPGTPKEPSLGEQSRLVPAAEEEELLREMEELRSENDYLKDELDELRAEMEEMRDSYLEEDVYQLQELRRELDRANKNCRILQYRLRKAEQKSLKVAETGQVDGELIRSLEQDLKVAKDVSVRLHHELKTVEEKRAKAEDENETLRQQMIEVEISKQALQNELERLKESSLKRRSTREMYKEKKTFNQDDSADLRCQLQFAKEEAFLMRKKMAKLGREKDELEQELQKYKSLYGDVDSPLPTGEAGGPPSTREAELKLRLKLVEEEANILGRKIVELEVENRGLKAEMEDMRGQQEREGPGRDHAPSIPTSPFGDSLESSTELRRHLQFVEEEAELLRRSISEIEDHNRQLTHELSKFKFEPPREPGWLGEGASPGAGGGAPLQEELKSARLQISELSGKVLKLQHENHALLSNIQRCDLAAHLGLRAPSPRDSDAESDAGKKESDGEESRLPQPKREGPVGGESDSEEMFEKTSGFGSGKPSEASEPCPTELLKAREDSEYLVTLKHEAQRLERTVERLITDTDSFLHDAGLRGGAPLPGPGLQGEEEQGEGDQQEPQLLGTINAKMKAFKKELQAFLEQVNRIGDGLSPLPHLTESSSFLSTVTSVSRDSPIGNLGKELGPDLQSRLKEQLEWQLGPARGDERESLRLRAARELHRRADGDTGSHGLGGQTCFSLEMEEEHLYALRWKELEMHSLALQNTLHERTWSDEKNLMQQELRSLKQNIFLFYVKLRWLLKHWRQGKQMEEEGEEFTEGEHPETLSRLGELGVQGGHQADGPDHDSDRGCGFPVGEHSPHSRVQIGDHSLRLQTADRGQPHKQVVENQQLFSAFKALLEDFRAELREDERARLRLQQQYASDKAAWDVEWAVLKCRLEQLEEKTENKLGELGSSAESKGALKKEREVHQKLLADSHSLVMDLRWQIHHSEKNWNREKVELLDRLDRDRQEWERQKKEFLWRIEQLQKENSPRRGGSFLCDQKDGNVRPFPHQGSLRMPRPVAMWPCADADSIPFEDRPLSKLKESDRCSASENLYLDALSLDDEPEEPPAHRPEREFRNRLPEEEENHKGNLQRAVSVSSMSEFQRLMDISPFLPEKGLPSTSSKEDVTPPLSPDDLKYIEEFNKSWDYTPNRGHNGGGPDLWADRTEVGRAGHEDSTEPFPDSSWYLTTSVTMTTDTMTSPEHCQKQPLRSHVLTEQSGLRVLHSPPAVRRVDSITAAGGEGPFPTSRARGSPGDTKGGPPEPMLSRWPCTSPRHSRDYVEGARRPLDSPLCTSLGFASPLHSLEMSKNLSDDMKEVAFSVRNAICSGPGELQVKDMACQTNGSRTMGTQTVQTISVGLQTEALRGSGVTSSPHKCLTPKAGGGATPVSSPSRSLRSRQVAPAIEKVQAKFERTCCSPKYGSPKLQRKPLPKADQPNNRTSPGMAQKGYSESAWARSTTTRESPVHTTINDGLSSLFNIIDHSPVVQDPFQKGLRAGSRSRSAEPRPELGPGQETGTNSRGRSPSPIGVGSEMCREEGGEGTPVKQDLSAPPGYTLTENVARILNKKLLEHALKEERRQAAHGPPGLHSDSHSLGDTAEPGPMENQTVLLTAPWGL
UniProt Q15800: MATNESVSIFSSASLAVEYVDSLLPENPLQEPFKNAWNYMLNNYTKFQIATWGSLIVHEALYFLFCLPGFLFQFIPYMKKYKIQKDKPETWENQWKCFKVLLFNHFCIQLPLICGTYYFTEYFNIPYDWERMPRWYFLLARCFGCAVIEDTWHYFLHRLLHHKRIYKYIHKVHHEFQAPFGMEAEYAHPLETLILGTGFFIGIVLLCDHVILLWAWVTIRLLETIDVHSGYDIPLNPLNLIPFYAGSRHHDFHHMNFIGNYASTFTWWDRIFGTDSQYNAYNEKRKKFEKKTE
UniProt Q96E11: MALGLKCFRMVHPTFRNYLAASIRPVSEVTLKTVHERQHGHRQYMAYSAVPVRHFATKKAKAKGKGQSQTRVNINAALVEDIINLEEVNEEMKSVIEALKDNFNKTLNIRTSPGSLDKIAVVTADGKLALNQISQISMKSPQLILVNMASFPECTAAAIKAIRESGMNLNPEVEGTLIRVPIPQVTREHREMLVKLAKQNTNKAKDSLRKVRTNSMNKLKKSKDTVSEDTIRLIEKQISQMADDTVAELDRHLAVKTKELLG
UniProt Q15390: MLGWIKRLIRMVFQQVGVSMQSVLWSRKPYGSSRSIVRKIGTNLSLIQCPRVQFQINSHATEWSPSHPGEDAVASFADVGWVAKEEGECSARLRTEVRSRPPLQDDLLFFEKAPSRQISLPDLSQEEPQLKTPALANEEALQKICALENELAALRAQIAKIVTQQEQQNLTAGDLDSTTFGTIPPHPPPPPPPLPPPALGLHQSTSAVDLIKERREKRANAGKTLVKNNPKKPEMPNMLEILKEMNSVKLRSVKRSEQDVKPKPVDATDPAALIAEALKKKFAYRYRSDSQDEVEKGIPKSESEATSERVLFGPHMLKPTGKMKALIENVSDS
UniProt Q9UBK8: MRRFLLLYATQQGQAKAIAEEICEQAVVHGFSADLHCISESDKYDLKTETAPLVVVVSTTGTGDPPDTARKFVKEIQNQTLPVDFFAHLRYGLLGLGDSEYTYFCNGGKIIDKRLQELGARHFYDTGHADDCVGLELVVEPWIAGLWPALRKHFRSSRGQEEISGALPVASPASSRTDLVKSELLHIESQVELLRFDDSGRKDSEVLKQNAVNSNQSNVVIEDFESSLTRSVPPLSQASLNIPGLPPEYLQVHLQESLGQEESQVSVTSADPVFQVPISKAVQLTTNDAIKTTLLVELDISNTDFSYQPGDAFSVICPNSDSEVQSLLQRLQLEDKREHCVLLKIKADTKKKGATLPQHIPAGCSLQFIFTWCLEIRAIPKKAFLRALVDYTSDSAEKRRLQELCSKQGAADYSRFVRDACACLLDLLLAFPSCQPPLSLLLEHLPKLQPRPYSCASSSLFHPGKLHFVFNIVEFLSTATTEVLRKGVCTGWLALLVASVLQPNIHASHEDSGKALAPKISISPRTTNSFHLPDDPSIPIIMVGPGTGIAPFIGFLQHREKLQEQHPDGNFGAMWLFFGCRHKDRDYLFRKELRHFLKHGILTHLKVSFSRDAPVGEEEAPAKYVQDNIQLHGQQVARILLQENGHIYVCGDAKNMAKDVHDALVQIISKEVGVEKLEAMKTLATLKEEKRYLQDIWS
UniProt P03928: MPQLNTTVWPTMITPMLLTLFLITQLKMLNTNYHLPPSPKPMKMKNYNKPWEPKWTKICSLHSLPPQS

The other results are listed elsewhere or left out.

Compound in one experiment: CN1CCN(CCOc2cc(OC3CCOCC3)c3c(Nc4c(Cl)ccc5c4OCO5)ncnc3c2)CC1 [saracatinib]
As to the kind of experiment: log2 fold change, soluble protein after heating vs DMSO (PISA); higher = thermal stabilisation; K562 lysate, 10 uM; active = over 0.2 and 3.5 SD of the protein, either way, in both replicates (recomputed). The method, boiled down: (§1)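 Log-two fold change in thermal stability relative to solvent controls is reported from duplicates. For each sample, crude K562 extract from dounce-homogenised pellets in PBS pH 7.4 with 1 mM MgCl2, at 1 mg/mL protein, was treated with 10 μM compound for 30 min. Aliquots heated for 3 min across 48°C-58°C were pooled, brought to 0.5% NP-40 at 4°C and cleared at 21,000xg for 90 min. The supernatant was quantified by TMTpro 16plex LC-MS/MS with channel sums equalised.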
Take MRPL55 isoform 2 (UniProt Q7Z7F7): the log2 fold change was inactive: -0.071.

As for MT-CO1 (UniProt P00395), the log2 fold change was inactive: 0.041.

As for MRPS21 (UniProt P82921), the log2 fold change is inactive: -0.001.

For MRPL50 (UniProt Q8N5N7), the log2 fold change is inactive: 0.021.

MTHFSD isoform 3 (UniProt Q2M296): the log2 fold change was inactive: 0.059.

For MTRF1L (UniProt Q9UGC7), the log2 fold change is inactive: 0.004.

For MSRB2 (UniProt Q9Y3D2), the log2 fold change is inactive: 0.058.

Consider MRPL9 (UniProt Q9BYD2), for which the log2 fold change was inactive: 0.034.

Take MRPL35 (UniProt Q9NZE8): the log2 fold change was inactive: 0.04.

As to MRPS26 (UniProt Q9BYN8), the log2 fold change is inactive: 0.051.

Take MRPS9 (UniProt P82933): the log2 fold change was inactive: 0.008.

Regarding MTA2 (UniProt O94776), the log2 fold change is inactive: 0.015.

MT1G (UniProt P13640): the log2 fold change is inactive: 0.038.

MSH6 (UniProt P52701): the log2 fold change was inactive: -0.003.

Compound in another experiment: CN1CCN(c2nc(C3=C(c4c[nH]c5ccccc45)C(=O)NC3=O)c3ccccc3n2)CC1 [sotrastaurin]
Described as above. The method, boiled down:
as §1
Take MTCL1 (UniProt Q9Y4B5): the log2 fold change was inactive: 0.041.

For MRPS23 (UniProt Q9Y3D9), the log2 fold change is inactive: -0.003.

With MTMR1 (UniProt Q13613), the log2 fold change was inactive: -0.015.

MSMO1 (UniProt Q15800): the log2 fold change was inactive: 0.027.

As for MSI2 (UniProt Q96DH6), the log2 fold change is inactive: -0.002.

For MRPS11 (UniProt P82912), the log2 fold change was inactive: 0.029.

For the target MTOR (UniProt P42345), the log2 fold change is inactive: 0.03.

Take MRPL37 (UniProt Q9BZE1): the log2 fold change was inactive: 0.035.

For the target MRPL38 (UniProt Q96DV4), the log2 fold change is inactive: 0.02.

MRPS27 isoform 2 (UniProt Q92552): the log2 fold change is inactive: 0.028.

For MRRF (UniProt Q96E11), the log2 fold change is inactive: -0.038.

Regarding MRPS6 (UniProt P82932), the log2 fold change was inactive: 0.036.

On to MRPL43 isoform 4 (UniProt Q8N983), for which the log2 fold change was inactive: -0.073.

MTA1 (UniProt Q13330): the log2 fold change was inactive: 0.036.

For MTFR1 (UniProt Q15390), the log2 fold change was inactive: -0.064.

Take MRPS16 (UniProt Q9Y3D3): the log2 fold change was inactive: 0.014.

In the case of MTRR isoform 1 (UniProt Q9UBK8), the log2 fold change is inactive: -0.036.

As for MTRES1 (UniProt Q9P0P8), the log2 fold change is inactive: 0.011.

In the case of MTHFD1, A0A384N5Y3, the log2 fold change is inactive: 0.039.

Turning to MT-ND4 (UniProt P03905), the log2 fold change was inactive: -0.004.

In the case of MTCH2 (UniProt Q9Y6C9), the log2 fold change was inactive: 0.022.

With MRPS7 (UniProt Q9Y2R9), the log2 fold change was inactive: 0.022.

As for MTM1 (UniProt Q13496), the log2 fold change was inactive: 0.012.

Regarding MT-ATP8 (UniProt P03928), the log2 fold change is inactive: -0.084.

Regarding MRPL55 isoform 2 (UniProt Q7Z7F7), the log2 fold change was inactive: -0.044.

For the target MT-CO1 (UniProt P00395), the log2 fold change was inactive: 0.001.

As for MRPS21 (UniProt P82921), the log2 fold change was inactive: 0.085.

Take MRPL50 (UniProt Q8N5N7): the log2 fold change was inactive: -0.02.

On to MTHFSD isoform 3 (UniProt Q2M296), for which the log2 fold change is inactive: -0.095.

As to MTRF1L (UniProt Q9UGC7), the log2 fold change was inactive: -0.037.

With MSRB2 (UniProt Q9Y3D2), the log2 fold change is inactive: -0.016.

As for MRPS14 (UniProt O60783), the log2 fold change is inactive: -0.065.

Turning to MRPL9 (UniProt Q9BYD2), the log2 fold change was inactive: 0.032.

MRPL35 (UniProt Q9NZE8): the log2 fold change is inactive: -0.019.

As to MRPS26 (UniProt Q9BYN8), the log2 fold change is inactive: 0.002.

Consider MRPS9 (UniProt P82933), for which the log2 fold change was inactive: 0.027.

As for MTA2 (UniProt O94776), the log2 fold change was inactive: 0.042.

For MT1G (UniProt P13640), the log2 fold change was inactive: -0.18.

On to MSH6 (UniProt P52701), for which the log2 fold change was inactive: 0.047.

Compound in the next experiment: CN1CC[C@H](c2c(O)cc(O)c3c(=O)cc(-c4ccccc4Cl)oc23)[C@H](O)C1 [alvocidib]
Described as above. The method in brief: as §1
Turning to MRPS23 (UniProt Q9Y3D9), the log2 fold change is inactive: 0.071.

Regarding MTMR1 (UniProt Q13613), the log2 fold change is inactive: -0.031.

Take MSMO1 (UniProt Q15800): the log2 fold change is inactive: -0.098.

As for MSI2 (UniProt Q96DH6), the log2 fold change was inactive: 0.035.

Take MRPS11 (UniProt P82912): the log2 fold change was inactive: -0.063.

Turning to MTOR (UniProt P42345), the log2 fold change is inactive: -0.054.

Regarding MRPL37 (UniProt Q9BZE1), the log2 fold change is inactive: -0.032.

Take MRPL38 (UniProt Q96DV4): the log2 fold change is inactive: 0.038.

As for MRPS27 isoform 2 (UniProt Q92552), the log2 fold change was inactive: -0.012.

Consider MRRF (UniProt Q96E11), for which the log2 fold change is inactive: 0.068.

Consider MRPS6 (UniProt P82932), for which the log2 fold change is inactive: 0.003.

For MRPL43 isoform 4 (UniProt Q8N983), the log2 fold change was inactive: 0.058.

With MTA1 (UniProt Q13330), the log2 fold change is inactive: 0.007.

As to MTFR1 (UniProt Q15390), the log2 fold change is inactive: -0.022.

With MRPS16 (UniProt Q9Y3D3), the log2 fold change is inactive: 0.039.

For MTRR isoform 1 (UniProt Q9UBK8), the log2 fold change was inactive: -0.03.

Consider MTHFD1, A0A384N5Y3, for which the log2 fold change was inactive: 0.036.

On to MT-ND4 (UniProt P03905), for which the log2 fold change was inactive: -0.154.

Take MTCH2 (UniProt Q9Y6C9): the log2 fold change is inactive: -0.032.

Take MRPS7 (UniProt Q9Y2R9): the log2 fold change was inactive: -0.022.

In the case of MTM1 (UniProt Q13496), the log2 fold change was inactive: -0.029.

For MT-ATP8 (UniProt P03928), the log2 fold change is inactive: 0.044.

Consider MRPL55 isoform 2 (UniProt Q7Z7F7), for which the log2 fold change is inactive: -0.154.

Take MT-CO1 (UniProt P00395): the log2 fold change is inactive: 0.069.

Regarding MRPS21 (UniProt P82921), the log2 fold change was inactive: -0.027.

Take MRPL50 (UniProt Q8N5N7): the log2 fold change is inactive: 0.028.

Turning to MTHFSD isoform 3 (UniProt Q2M296), the log2 fold change is inactive: -0.075.

Regarding MTRF1L (UniProt Q9UGC7), the log2 fold change is inactive: -0.033.

Take MSRB2 (UniProt Q9Y3D2): the log2 fold change was inactive: 0.056.

Consider MRPS14 (UniProt O60783), for which the log2 fold change is inactive: 0.043.

MRPL9 (UniProt Q9BYD2): the log2 fold change is inactive: 0.027.

As for MRPL35 (UniProt Q9NZE8), the log2 fold change was inactive: 0.057.

In the case of MRPS26 (UniProt Q9BYN8), the log2 fold change was inactive: 0.016.

In the case of MRPS9 (UniProt P82933), the log2 fold change is inactive: 0.013.

As for MTA2 (UniProt O94776), the log2 fold change was inactive: 0.005.

MT1G (UniProt P13640): the log2 fold change is inactive: -0.016.

In the case of MSH6 (UniProt P52701), the log2 fold change is inactive: -0.021.
